Experimental data: PubChem BioAssay AID624291 (National Center for Advancing Translational Sciences (NCATS), 2012)
The campaign covered roughly 350,000 compounds. About 220 (0.063%) were called active. Inconclusive results, whose numbers are uncertain, are shown with a selection of clear calls. The call rests on the fitted dose curve; in most records, active means well fitted activation curve with a large enough effect; inconclusive means small, poorly fitted or top-dose-only effect; inactive means no such curve, though single readings can be large or run the other way. Potencies of inconclusive entries are doubtful fits and often do not repeat.

Assay: qHTS for Activators of Integrin-Mediated Alleviation for Muscular Dystrophy; further: nearly all actives have a fitted effect of over 60% in size
Settings: alpha7betagal myoblasts, beta-gal FDG fluorescence, 48 h; series mostly up to 38.3 µM
In short: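 alpha7betagal+/- myoblasts (passage 13, 250/well) treated 48 h at 37C with compounds at 1:260 dilution of DMSO stock. Lysed, then beta-galactosidase activity read as FDG fluorescence (ex 480/em 540) after 30 min, with pre-read for autofluorescence.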
Potency means the concentration at half of the fitted maximal effect.

Row | SMILES | Potency
1 | S=c1[nH]nc(COc2ccccc2)n1/N=C/c1ccccc1Br | inconclusive: 5.01 µM [activator, single point]
2 | O=C(NC(=S)Nc1ccccc1N1CCCCC1)c1ccco1 | inactive
3 | COc1ccc(C(=O)NCC(=O)N/N=C(\C)Cc2ccccc2)cc1 | inconclusive: 28.2 µM [activator, single point]
4 | O=C(NC1CCN(C(=O)C2CCCCC2)CC1)c1ccccc1 | inconclusive: 3.55 µM [activator, single point]
5 | CCS(=O)(=O)c1nc(S(=O)(=O)c2ccc(C)cc2)c(N2CCCC2)s1 | inconclusive: 5.62 µM [activator, partial curve]
6 | CN1CCN(CC(=O)Nc2cc(S(=O)(=O)N3CCOCC3)ccc2Cl)CC1 | inactive
7 | Cc1cccc(-n2cc(-c3ccc([N+](=O)[O-])cc3)[nH]c2=S)c1 | inactive
8 | COCCOc1cc(NC(=O)CS(=O)CC(=O)N(C)C)c(Cl)cc1Cl (stereo not given) | inconclusive: 28.2 µM [activator, single point]
9 | CCn1c(=O)n(C)c2c(=O)n(C)c(=O)n(C)c21 | inconclusive: 3.55 µM [activator, single point]
10 | O=C(NCc1cnn(-c2ccccc2)c1)C1CCC(=O)N(C2CC2)C1 (stereo not given) | inactive
11 | Cc1cc(=O)[nH]c(NCc2ccccc2)n1 | inconclusive: 3.55 µM [activator, single point]
12 | Cc1ccccc1-n1c(-c2ccc(=O)[nH]n2)n[nH]c1=S | inconclusive: 22.4 µM [activator, single point]
13 | CC(=O)Oc1cccc(Nc2ncnc3ccccc23)c1 | inconclusive: 8.91 µM [activator, partial curve, poor fit]
14 | Cc1cc(NC(=NC2CC2)c2ccccc2F)n(-c2ccccc2)n1 | inconclusive: 11.2 µM [activator, single point]
15 | COc1ccc(S(=O)(=O)N2CCOCC2)c2ccccc12 | inactive
16 | CC1(CCc2ccccc2)NC(=O)N(CC(=O)N2CC(=O)Nc3ccccc32)C1=O (stereo not given) | inactive
17 | O=[N+]([O-])c1cc(Br)cc(/C=N/n2cnnc2)c1O | inactive
18 | CCCCN(C)C(=O)c1cc2cc3ccc(OC)cc3nc2o1 | inconclusive: 5.01 µM [activator, single point]
19 | Cc1c(C)c2ccc(OCC(=O)NCCCN3CCCC3=O)cc2oc1=O | inconclusive: 28.2 µM [activator, single point]
20 | Cc1cc(C)n(-c2nc(-c3ccc(Cl)cc3)cs2)n1 | inconclusive: 5.62 µM [activator, partial curve, poor fit]

From entry 10 to 11, as listed above:
Row | SMILES | Potency
10 | O=C(NCc1cnn(-c2ccccc2)c1)C1CCC(=O)N(C2CC2)C1 (stereo not given) | inactive
11 | Cc1cc(=O)[nH]c(NCc2ccccc2)n1 | inconclusive: 3.55 µM [activator, single point]
